Assay results taken from publication doi:10.1101/2020.07.13.200055.
Construct, isoform or probe ends are uncertain for at least one entry. For part of these data: Weaker means in comparison with the reference protein, sequence or condition of that experiment.

What was measured:
[1] = test system: Pol gamma holoenzyme (Pol gammaA + Pol gammaB deltaI4) del4-4,Pol,gammaB:; experiment: EMSA; conditions: 0.5 uM Pol gamma, 0.75 uM DNA
[2] = test system: PARP1 + Pol gamma holoenzyme (Pol gammaA + Pol gammaB deltaI4) del4-4,Pol,gammaB:; experiment: EMSA + Western blot

**Q.** What does the source list for “CTTTTCTGGTGAAAAGCTCGTCGGCAGCGCTTGAGCAGCGGCAGCTGGTGCTGCCGCTGCTCAAGCGCTGCCGAC [d3ntgap (75-nt dumbbell with 3-nt gap)]”?
**A.** binding result [1]: binds; binding result ([2]; 2 mM NAD+ plus Olaparib, dissociation prevented): binds; binding result ([2]; 2 mM NAD+, supershift dissociates to the Pol gamma-DNA complex): binds more weakly
